Some of these results come from one statement about several compounds together. At least one compound was matched to its structure with a doubt left.
Legend:
[1] = biological target: T1, Abl T315I kinase domain (unphosphorylated) (Mus musculus, UniProt P00520, T315I); assay: Abl_T315I Bioassay (c-Abl PK/LDH coupled enzyme assay); assay type: biochemical; conditions: 10 μM ATP
T1 construct: purified and unphosphorylated T315I Abl kinase domain; made in house; host or cells: E. coli BL21(DE3) strains
T1 sequence (P00520 242-493 T315I limits assumed): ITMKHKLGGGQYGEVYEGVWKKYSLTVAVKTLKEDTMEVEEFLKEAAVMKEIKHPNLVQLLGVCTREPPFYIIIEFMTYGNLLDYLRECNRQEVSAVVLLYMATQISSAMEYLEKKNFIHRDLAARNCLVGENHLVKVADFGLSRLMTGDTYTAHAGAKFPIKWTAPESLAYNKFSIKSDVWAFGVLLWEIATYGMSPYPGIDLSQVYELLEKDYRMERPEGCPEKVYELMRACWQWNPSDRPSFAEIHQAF
From the text: Although the first of these examples uses the kinase domain of a mutant form of Abl T315I (“Abl T315I KD”), the kinase assays may use various forms of mutant and wild type enzymes, including, for example, the entire protein, the kinase domain, or a portion thereof (e.g. Abl Y393F). The kinases used in the assays may also be of varying phosphorylation states. In the c-Abl example, a mutant kinase at a zero phosphorylation state was used.
In the c-Abl Pyruvate Kinase (PK)/Lactate Dehydrogenase (LDH) Coupled Assay the protein kinase dependant phosphorylation of a substrate peptide was coupled to the oxidation of NADH. The oxidation of NADH to NAD+ was detected by monitoring a decrease in absorbance at 340 nm.
Materials: Abl substrate peptide=EAIYAAPFAKKK (SEQ ID NO:1)-OH (Biopeptide, San Diego, Calif.); βNADH (Sigma Cat#N-8129, FW=709.4); 2M MgCl2; 1M HEPES buffer, pH 7.5; Phosphoenolpyruvate (PEP) (Sigma Cat#P-7002, FW=234); Lactate dehydrogenase (LDH) (Worthington Biochemical Cat#2756); Pyruvate Kinase (PK) (Sigma Cat#P-9136); ATP (Sigma Cat#A-3377, FW=551); Greiner 384-well UV star plate; and purified and unphosphorylated T315I Abl kinase domain.
Stock Solutions: 10 mM NADH (7.09 mg/ml in miliQH2O) made fresh daily; 10 mM Abl substrate peptide (13.4 mg/ml in miliQH2O) stored at −20° C.; 100 mM HEPES buffer, pH 7.5 (5 ml 1M stock+45 ml miliQH2O); 100 mM MgCl2 (5 ml 2M MgCl2+95 ml dH2O); 100 mM PEP (23.4 mg/ml in dH2O) stored at −20° C.; 10 mM ATP (5.51 mg/ml in dH2O) stored at −20° C. (diluted 50 μl into total of 10 ml miliQH2O daily=50 μM ATP working stock); 1000 U/ml PK (U/mg varies with lot) flash-frozen under liquid N2 and stored at −80° C.; and 1000 U/ml LDH (U/mg varies with lot) flash-frozen under liquid N2 and stored at −80° C.
Standard Assay Setup for 384-well format (50 μl reaction): 300 μM NADH; 10 mM MgCl2; 2 mM PEP; 45 U/ml PK; 60 U/ml LDH; 200 μM Abl substrate peptide; 2.5 μl test compound (in DMSO); 2 μg/ml Abl kinase domain; 10 μM ATP; 100 mM HEPES buffer. Positive controls contained DMSO with no test compound. Negative controls contained 5 μl of 0.5M EDTA (50 mM in the assay). The dephosphorylated form of the c-Abl T315I mutant was used in the biochemical screening assays. The kinase reaction was initiated at time t=0 by the addition of ATP.
Activity was measured by following the time-dependent loss of NADH by absorbance spectroscopy at 340 nm. The linear portion of the resulting progress curve was then analyzed by linear regression to get the activity in absorbance units/time, reported as the slope of that best fit line (moles/unit time can be calculated from using molar extinction coefficient for NADH at 340 nm, 6250M^−1 cm^−1).
Data was evaluated using the equation: Z′=1−[3*(σ++σ−)/|μ+−μ−|](Zhang, et al., 1999 J Biomol Screening 4(2) 67-73), where μ denotes the mean and σ the standard deviation. The subscript designates positive or negative controls. The Z′ score for a robust screening assay should be ≧0.50. The typical threshold=μ+−3*σ+. Any value that falls below the threshold was designated a “hit”.
Dose response was analyzed using the equation: y=min+{(max−min)/(1+10^[compound]−logIC50)}, where y is the observed initial slope, max=the slope in the absence of inhibitor, min=the slope at infinite inhibitor, and the IC50 is the [compound] that corresponds to ½ the total observed amplitude (Amplitude=max−min).
To measure modulation, activation, or inhibition of Abl KD, a test compound was added to the assay at a range of concentrations. Inhibitors may inhibit Abl KD activity at an IC50 in the micromolar range, the nanomolar range, or, for example, in the subnanomolar range.
An open-reading frame for c-Abl was amplified from a Mus musculus (mouse) cDNA library prepared from freshly harvested mouse liver using a commercially available kit (Invitrogen) by PCR using the following primers: […]
The c-Abl T315I KD (kinase domain) was purified as follows. […]

[2] = tested on: Ba/F3-M351T cells; assay: Ba/F3-M351T XTT Assay (cell survival); assay type: cell-based; conditions: 72 hours
[3] = tested on: Ba/F3-E255K cells; assay: Ba/F3-E255K XTT Assay (cell survival); assay type: cell-based; conditions: 72 hours
[4] = tested on: Ba/F3-Y253F cells; assay: Ba/F3-Y253F XTT Assay (cell survival); assay type: cell-based; conditions: 72 hours
[5] = tested on: Ba/F3-T315I cells; assay: Ba/F3-T315I XTT Assay (cell survival); assay type: cell-based; conditions: 72 hours
Protocol: MV4-11 and THP cells were maintained in Iscove's Modified Dulbecco's Medium supplemented with 10% fetal bovine serum (FBS) and penicillin/streptomycin, Ba/F3 cells were maintained in RPMI 1640 supplemented with 10% FBS, penicillin/streptomycin and 5 ng/ml recombinant mouse IL-3.
Compounds were tested in the following assays in duplicate.
96-well XTT assay: Cells (e.g. BaF3 315I, M351I, or E255K cells) were grown in growth media containing various concentrations of compounds (duplicates) on a 96-well plate for 72 hours at 37° C. The starting cell number was 5000-8000 cells per well and volume was 120 μl. At the end of the 72-hour incubation, 40 μl of XTT labeling mixture (50:1 solution of sodium 3′-[1-(phenylamino-carbonyl)-3,4-tetrazolium]-bis(4-methoxy-6-nitro) benzene sulfonic acid hydrate and Electron-coupling reagent: PMS (N-methyl dibenzopyrazine methyl sulfate) were added to each well of the plate. After an additional 2-6 hours of incubation at 37° C., the absorbance reading at 405 nm with background correction at 650 nm was measured with a spectrophotometer.

Structure (SMILES)	IC50 [1]	IC50 [2]	IC50 [3]	IC50 [4]	IC50 [5]
COc1ccccc1-c1c[nH]c2ncc(-c3ccc(N)c(C(=O)N(C)C)c3)cc12 [AE100]	< 50 nM	< 500 nM	< 1000 nM	< 1000 nM	–
CN[C@H](CC(C)C)C(=O)Nc1ccc(-c2cnc3[nH]cc(-c4ccccc4OC)c3c2)cc1C(=O)N(C)C [AE106]	< 50 nM	< 500 nM	< 1000 nM	–	< 100 nM
COc1ccccc1-c1c[nH]c2ncc(-c3cc(F)cc(C(=O)N4CCC(CCN5CCC[C@H]5CO)CC4)c3)cc12 [AE107]	< 50 nM	< 500 nM	< 1000 nM	–	< 100 nM
COc1ccccc1-c1c[nH]c2ncc(-c3cc(C)c(O)c(C(=O)N4CCN(CCN(C)C)CC4)c3)cc12 [AE109]	< 50 nM	< 500 nM	< 1000 nM	< 1000 nM	< 100 nM
COc1ccccc1-c1c[nH]c2ncc(-c3ccc(NC(=O)[C@@H](C)NC4CCCC4)c(C(=O)N(C)C)c3)cc12 [AE112]	< 50 nM	< 500 nM	< 1000 nM	–	< 100 nM
COc1ccccc1-c1c[nH]c2ncc(-c3cc(Cl)c(O)c(C(=O)N4CCN(CCN(C)C)CC4)c3)cc12 [AE119]	< 50 nM	–	< 1000 nM	< 1000 nM	< 100 nM
COc1ccccc1-c1c[nH]c2ncc(-c3ccc(OC(N)=O)c(C(=O)N4CCOCC4)c3)cc12 [AE124]	< 50 nM	–	< 1000 nM	–	< 100 nM
COc1ccccc1-c1c[nH]c2ncc(-c3ccc(NC(=O)[C@H]4CCN4)c(C(=O)N(C)C)c3)cc12 [AE126]	< 50 nM	< 500 nM	< 1000 nM	–	< 100 nM
COc1ccccc1-c1c[nH]c2ncc(-c3ccc(NC=O)c(C(=O)N(C)C)c3)cc12 [AE128]	< 50 nM	< 500 nM	< 1000 nM	–	< 100 nM
COCCOC(=O)Nc1ccc(-c2cnc3[nH]cc(-c4ccccc4OC)c3c2)cc1C(=O)N(C)C [AE130]	< 50 nM	< 500 nM	< 1000 nM	–	< 100 nM
COc1ccccc1-c1c[nH]c2ncc(-c3ccc(F)c(C(=O)N4CCN(CCN(C)C)CC4)c3)cc12 [AE131]	< 50 nM	< 500 nM	< 1000 nM	< 1000 nM	< 100 nM
COc1ccccc1-c1c[nH]c2ncc(-c3ccc(NC(=O)OCCN4CCOCC4)c(C(=O)N(C)C)c3)cc12 [AE133]	< 50 nM	< 500 nM	< 1000 nM	–	< 100 nM
COc1ccccc1-c1c[nH]c2ncc(-c3ccc(NC(=O)[C@@H](C)NC(C)C)c(C(=O)N(C)C)c3)cc12 [AE134]	< 50 nM	< 500 nM	< 1000 nM	–	< 100 nM
COC(=O)Nc1c(F)cc(-c2cnc3[nH]cc(-c4ccccc4OC)c3c2)cc1C(=O)N(C)C [AE135]	< 50 nM	< 500 nM	< 1000 nM	–	< 100 nM
COc1ccccc1-c1c[nH]c2ncc(-c3ccc(NCCN(C)C)c(C(=O)N(C)C)c3)cc12 [AE148]	< 50 nM	< 500 nM	< 1000 nM	< 1000 nM	–
COc1ccccc1-c1c[nH]c2ncc(-c3ccc(NC(=O)N4CCOCC4)c(C(=O)N(C)C)c3)cc12 [AE153]	< 50 nM	< 500 nM	< 1000 nM	–	< 100 nM
COc1ccccc1-c1c[nH]c2ncc(-c3cc(F)cc(C(=O)N4CCC(CCN5C(C)CCCC5C)CC4)c3)cc12 (stereo not shown) [AE154]	< 50 nM	< 500 nM	< 1000 nM	< 1000 nM	< 100 nM

— US7709645B2, “Pyrrolo-pyridine kinase modulators” (SGX Pharmaceuticals, Inc., priority 2004, dated 2010)
